From publication PMC7819943, “Rice protein-binding microarrays: a tool to detect cis-acting elements near promoter regions in rice”
The other results are listed elsewhere or left out.

Each sequence was assayed against T1, OsSMF1 (Oryza sativa, UniProt Q6ZLB0 1-436) (assay: protein-binding microarray (RPBM); PBS, 2% BSA, 51.3 ng/ul salmon testes DNA, 50 uM zinc acetate, 200 nM TF, 25 C, 1 h; high values mean tight binding). Details: protein: recombinant; tags: N-terminal polyhistidine and DsRed monomer fusion (pET32a); chain copies: 2; label: CyDye5-dUTP incorporated in the synthesized complementary strand; 3' TTTTT single-stranded linker to array surface; dsDNA, one strand shown.
T1 sequence: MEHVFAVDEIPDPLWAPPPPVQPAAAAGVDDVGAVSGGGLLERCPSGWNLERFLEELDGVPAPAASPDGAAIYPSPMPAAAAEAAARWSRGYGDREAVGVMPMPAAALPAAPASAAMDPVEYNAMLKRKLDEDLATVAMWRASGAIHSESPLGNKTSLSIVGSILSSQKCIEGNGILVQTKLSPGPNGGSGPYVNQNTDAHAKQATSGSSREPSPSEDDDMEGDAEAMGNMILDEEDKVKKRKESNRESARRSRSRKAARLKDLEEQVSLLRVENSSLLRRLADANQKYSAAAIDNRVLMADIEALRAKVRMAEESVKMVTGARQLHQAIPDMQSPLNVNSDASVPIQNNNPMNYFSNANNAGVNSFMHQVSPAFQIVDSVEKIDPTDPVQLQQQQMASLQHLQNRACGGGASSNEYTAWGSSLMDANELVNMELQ
Method in brief: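 A custom Agilent array was converted to double-stranded form by primer extension with Cy5-dUTP and blocked with 2% BSA. Protein at 200 nM in PBS with 2% BSA, salmon testes DNA and 50 µM zinc acetate was applied for 1 h at 25 °C, followed by washing. The proteins were polyhistidine–DsRed N-terminal fusions of transcription factors, expressed in E. coli BL21-CodonPlus and Ni–NTA-purified. The binding signal is per-feature fluorescence intensity (arbitrary units) from an Axon 4000B scanner.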
For “TGGCCATTGACGTGCATACTTTAATCGACTAATCAATTCCCGGAGTCACCTAGTGCAG”, the binding signal was 3540 fluorescence intensity (a.u.).
For “ACCCTCTCACCCTAGCTTAGTTTGCCACGACCTGGACCCACGGAGTCACCTAGTGCAG”, the binding signal was 3920 fluorescence intensity (a.u.).
With “AGGGTTATAATTAGATGGGTAGTGGAGGTAGGTAAGAAAACGGAGTCACCTAGTGCAG” the binding signal was 4130 fluorescence intensity (a.u.).
For “GTGGTTCATGGACGATTTTGTAACTTGATGACAAGGAGGGCGGAGTCACCTAGTGCAG”, the binding signal was 4440 fluorescence intensity (a.u.).
“TTATTCCCTCTCTACCCCAGCTACCCTATACCATCTCAAGCGGAGTCACCTAGTGCAG” was tested, and the binding signal was 3280 fluorescence intensity (a.u.).
“CGTTGTGCTAGCATTTGCAGGTCCAGCACATCATCGTTGGCGGAGTCACCTAGTGCAG” was tested, and the binding signal was 6200 fluorescence intensity (a.u.).
With “CCCAAGGTATCATTCGTCCATTTATTGATTTGTTTCTCTGCGGAGTCACCTAGTGCAG” the binding signal was 4390 fluorescence intensity (a.u.).
For “ACTCGGAGTCGTCTCCTCCCTCCGTCAGCGCTTCCATCTTCGGAGTCACCTAGTGCAG”, the binding signal was 3970 fluorescence intensity (a.u.).
“AACATATTAGAATATCGGTCTTAAATTAAATCCCATATAACGGAGTCACCTAGTGCAG” was tested, and the binding signal was 29100 fluorescence intensity (a.u.).
“CCTCGCCACCGCACGCGTCGCCCCGGCGCCGCTTCCCCTGCGGAGTCACCTAGTGCAG” was tested, and the binding signal was 3930 fluorescence intensity (a.u.).
For “GCAAAAGCATTGCTTCTCCCAACCGTTGCATGCATGCTCTCGGAGTCACCTAGTGCAG”, the binding signal was 3300 fluorescence intensity (a.u.).
For “CAGTTCACCATTAGTCACCATCTAATTGTATCCTAGCAGGCGGAGTCACCTAGTGCAG”, the binding signal was 3300 fluorescence intensity (a.u.).
“CGACGGTGATGCACGAGCGCCCAGGCTCATGCAGCCAGTACGGAGTCACCTAGTGCAG” was tested, and the binding signal was 3280 fluorescence intensity (a.u.).
In the case of “GAGAGAGCCCTGCATGATGCAGTCAAATTAATCACGCAGCCGGAGTCACCTAGTGCAG”, the binding signal is reported as 3320 fluorescence intensity (a.u.).
For “AACATTCCCGTGCATGCGTGATCTTCGGAGCATTTCTGTTCGGAGTCACCTAGTGCAG”, the binding signal was 36700 fluorescence intensity (a.u.).
For “AAAACAAATTAAACAGCAACTACATAATGTATTGTCATAGCGGAGTCACCTAGTGCAG”, the binding signal was 3540 fluorescence intensity (a.u.).
In the case of “TCTACCGAACAAGCCTATTATGTTTAAAGATTTCTAGCTCCGGAGTCACCTAGTGCAG”, the binding signal is reported as 28700 fluorescence intensity (a.u.).
In the case of “ACATATATATACTACGATGGTGCGTGTGACGCACGACACGCGGAGTCACCTAGTGCAG”, the binding signal is reported as 3690 fluorescence intensity (a.u.).
With “GGTAAACATTAAGATCGGCCTTGTCACGGGCCACCGGAACCGGAGTCACCTAGTGCAG” the binding signal was 3360 fluorescence intensity (a.u.).
With “GAGCAGCCAGCTCGCCAAGCCTAGCCATTCTTGATCTCTTCGGAGTCACCTAGTGCAG” the binding signal was 3280 fluorescence intensity (a.u.).
In the case of “TCTCTTACTACCTTCCACGCTTCCATCCCACGTCTTCTCCCGGAGTCACCTAGTGCAG”, the binding signal is reported as 5140 fluorescence intensity (a.u.).
“CAACATTTCTATGCCAGCTCACCCGTGACATGGCCCTCTCCGGAGTCACCTAGTGCAG” was tested, and the binding signal was 22300 fluorescence intensity (a.u.).
In the case of “TAATTAAAAGATTTGTCTCGTAATTTACACGCAATCTATGCGGAGTCACCTAGTGCAG”, the binding signal is reported as 3460 fluorescence intensity (a.u.).
“GAAGAGGGGAAAGAGAGAGGGTGACGTGGACACCTGACATCGGAGTCACCTAGTGCAG” was tested, and the binding signal was 21700 fluorescence intensity (a.u.).
In the case of “CCCACCTTTCAAATTCCACGTCCGCCAATAATATTATTACCGGAGTCACCTAGTGCAG”, the binding signal is reported as 6710 fluorescence intensity (a.u.).
With “CAGAGTGCGCCGCAACCGCCGCGCGCCGCCAGCTCCGCTACGGAGTCACCTAGTGCAG” the binding signal was 3310 fluorescence intensity (a.u.).
“CGGCGGCCCTGACGACGAGGCCGCGTGACGGCCGCGGCGCCGGAGTCACCTAGTGCAG” was tested, and the binding signal was 5860 fluorescence intensity (a.u.).
With “GATGAGCTGCGGCAACCACGTCGTCTTTGAGAGGAAGTGCCGGAGTCACCTAGTGCAG” the binding signal was 3730 fluorescence intensity (a.u.).
In the case of “TACTTAATTGGGAAACGTGACACTTCATGGTCCGTGAAGGCGGAGTCACCTAGTGCAG”, the binding signal is reported as 3220 fluorescence intensity (a.u.).
With “GCGAGTCGAGTCGCTTCCACCCACCTCACCTCCCTTCCCCCGGAGTCACCTAGTGCAG” the binding signal was 3560 fluorescence intensity (a.u.).
In the case of “CAGTCCGCGCGCGCACCCGTTTCCTCCAACGACTGATCTGCGGAGTCACCTAGTGCAG”, the binding signal is reported as 17700 fluorescence intensity (a.u.).
In the case of “CAATTATGACACTGCAAATATTAACCTTTACTATAATGACCGGAGTCACCTAGTGCAG”, the binding signal is reported as 5000 fluorescence intensity (a.u.).
In the case of “TGTGTGTTTTGTGCTGTACACCTGTACTACTACTGCTGTACGGAGTCACCTAGTGCAG”, the binding signal is reported as 3170 fluorescence intensity (a.u.).
“ATGAGGGGTAGGAGGATGACATGTGGGGCCCACGTGGGTCCGGAGTCACCTAGTGCAG” was tested, and the binding signal was 6460 fluorescence intensity (a.u.).
“TTTTGTCTTTGGTGCCACGTCCCCATCATGTCATGTAAAACGGAGTCACCTAGTGCAG” was tested, and the binding signal was 23700 fluorescence intensity (a.u.).
“AAATTGTACTATTACTAAAGAATACATAGATATCTAAACACGGAGTCACCTAGTGCAG” was tested, and the binding signal was 3160 fluorescence intensity (a.u.).
For “TTTGTAAGCCTTGCATATCTATTGAGTAATGCCTGAGTCGCGGAGTCACCTAGTGCAG”, the binding signal was 3780 fluorescence intensity (a.u.).
In the case of “ATTCCGATGGCTATATACGGTATTCCGCGTGCACACTAACCGGAGTCACCTAGTGCAG”, the binding signal is reported as 3690 fluorescence intensity (a.u.).
For “TGTTAGGAGTAGGGATGTAAGTGGAGCGGGTAAGCGGGTTCGGAGTCACCTAGTGCAG”, the binding signal was 3370 fluorescence intensity (a.u.).
In the case of “CGAGCCCTCGCGCGCGTCGCATCGCATCACCGCCGCGCCGCGGAGTCACCTAGTGCAG”, the binding signal is reported as 3780 fluorescence intensity (a.u.).
With “TATCTTAATCGACGTGGTGTCCACGTTGCAAATTACTACACGGAGTCACCTAGTGCAG” the binding signal was 9370 fluorescence intensity (a.u.).
In the case of “AGTAGTACTAGTACGTAATGCCATTGCACGGGACCATCTTCGGAGTCACCTAGTGCAG”, the binding signal is reported as 3150 fluorescence intensity (a.u.).
